Experimental data published in patent US20140349944A1, “CHAPERONE-BASED INTEGRIN INHIBITORS FOR THE TREATMENT OF CANCER AND INFLAMMATORY DISEASES” (priority 2013, published 2014).
These are yes or no findings as the source states them, for the method shown. In cells and extracts the contact can be indirect. Some binding calls cover weakened binding; strength is not graded here. Where a sequence is shown, tags or fusion partners need not be part of it.

Sequences of proteins named here, by UniProt entry; tags and fusion partners are left off. Residues count along the entry.
UniProt P08113, residues 22-802: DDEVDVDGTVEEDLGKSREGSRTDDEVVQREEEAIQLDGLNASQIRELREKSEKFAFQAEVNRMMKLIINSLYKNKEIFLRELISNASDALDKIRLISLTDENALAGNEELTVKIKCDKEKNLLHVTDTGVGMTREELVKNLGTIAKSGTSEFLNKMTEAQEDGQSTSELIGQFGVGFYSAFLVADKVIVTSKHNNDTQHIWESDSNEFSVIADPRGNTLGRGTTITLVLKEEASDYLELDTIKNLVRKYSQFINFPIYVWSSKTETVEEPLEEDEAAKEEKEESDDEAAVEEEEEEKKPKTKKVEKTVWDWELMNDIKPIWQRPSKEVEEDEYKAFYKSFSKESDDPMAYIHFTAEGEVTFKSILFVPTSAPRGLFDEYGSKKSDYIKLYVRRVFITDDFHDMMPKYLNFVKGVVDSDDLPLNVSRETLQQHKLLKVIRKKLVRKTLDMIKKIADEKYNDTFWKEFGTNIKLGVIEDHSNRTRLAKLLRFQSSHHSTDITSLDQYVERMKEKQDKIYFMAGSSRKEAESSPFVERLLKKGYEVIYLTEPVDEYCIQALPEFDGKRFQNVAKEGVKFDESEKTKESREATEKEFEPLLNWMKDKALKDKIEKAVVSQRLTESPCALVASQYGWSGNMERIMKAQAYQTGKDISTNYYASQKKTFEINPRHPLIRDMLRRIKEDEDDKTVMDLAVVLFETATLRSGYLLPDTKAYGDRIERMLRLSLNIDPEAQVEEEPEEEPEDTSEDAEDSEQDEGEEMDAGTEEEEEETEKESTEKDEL

B1: GST-tagged AID of integrin αD (protein, mouse, UniProt Q3V0T4 159-341, looked up, not shown: a dimerising Fc or GST)
chain: DIAFLIDGSGSIDQSDFTQMKDFVKALMGQLASTSTSFSLMQYSNILKTHFTFTEFKSSLSPQSLVDAIVQLQGLTYTASGIQKVVKELFHSKNGARKSAKKILIVITDGQKFRDPLEYRHVIPEAEKAGIIRYAIGVGDAFREPTALQELNTIGSAPSQDHVFKVGNFVALRSIQRQIQEKI
B2: GST-tagged AID of integrin α1 (protein, mouse, UniProt Q3V3R4 170-364, looked up, not shown: a dimerising Fc or GST)
chain: QLDIVIVLDGSNSIYPWESVTAFLNDLLKRMDIGPKQTQVGIVQYGANVTHEFNLNKYSSTEEVLVAANKIGRRGGLQTMTALGIDTARKEAFTEARGARRGVKKVMVIVTDGESHDNYRLKQVIQDCEDENIQRFSIAILGHYNRGNLSTEKFVEEIKSIASEPTEKHFFNVSDELALVTIVKALGERIFALEA
B3: GST-tagged AID of integrin αE (protein, mouse, UniProt Q60677 195-378, looked up, not shown: a dimerising Fc or GST)
chain: EIAIVLDGSGSIEPSDFQKAKNFISTMMRNFYEKCFECNFALVQYGAVIQTEFDLQESRDINASLAKVQSIVQVKEVTKTASAMQHVLDNIFIPSRGSRKKALKVMVVLTDGDIFGDPLNLTTVINSPKMQGVVRFAIGVGDAFKNNNTYRELKLIASDPKEAHTFKVTNYSALDGLLSKLQQH
B4: GST-tagged AID of integrin α2 (protein, mouse, UniProt Q62469 170-365, looked up, not shown: a dimerising Fc or GST)
chain: VDVVVVCDESNSIYPWEAVKNFLVKFVTGLDIGPKKTQVALIQYANEPRIIFNLNDFETKEDMVQATSETRQHGGDLTNTFRAIEFARDYAYSQTSGGRPGATKVMVVVTDGESHDGSKLKTVIQQCNDDEILRFGIAVLGYLNRNALDTKNLIKEIKAIASTPTERYFFNVADEAALLEKAGTLGEQIFSIEGTV
B5: GST-tagged AID of integrin αL (protein, mouse, UniProt P24063 150-330, looked up, not shown: a dimerising Fc or GST)
chain: GKVDLVFLFDGSQSLDRKDFEKILEFMKDVMRKLSNTSYQFAAVQFSTDCRTEFTFLDYVKQNKNPDVLLGSVQPMFLLTNTFRAINYVVAHVFKEESGARPDATKVLVIITDGEASDKGNISAAHDITRYIIGIGKHFVSVQKQKTLHIFASEPVEEFVKILDTFEKLKDLFTDLQRRIY
B6: GST-tagged AID of integrin αM (protein, mouse, UniProt P05555 148-338, looked up, not shown: a dimerising Fc or GST)
chain: ESDIVFLIDGSGSINNIDFQKMKEFVSTVMEQFKKSKTLFSLMQYSDEFRIHFTFNDFKRNPSPRSHVSPIKQLNGRTKTASGIRKVVRELFHKTNGARENAAKILVVITDGEKFGDPLDYKDVIPEADRAGVIRYVIGVGNAFNKPQSRRELDTIASKPAGEHVFQVDNFEALNTIQNQLQEKIFAIEGT

Molecular target: gp96 (mouse) (mouse) (UniProt P08113)
Experiment: GST pull-down from murine B cell lysates, immunoblot (FIG. 2A)

binding, binds:
B1
B2
B3
B4
B5
B6

Molecular target: gp96 (mouse) (mouse) (UniProt P08113)
Experiment: GST pull-down from murine B cell lysates, immunoblot (legend of FIG. 2A)

binding, binds:
B1
B2
B3
B4
B5
B6
